A short description of the data set: in vivo. Particulars: mouse, po. Here is the method: A toxicity study was carried out on conventional mice weighing about 20 grams.
The compounds corresponding to the general formula I according to the present invention and the pharmaceutically acceptable salts thereof were administered orally. The DL50 was calculated according to the method by L. C. Miller and M. L. Tainter--Proc. Soc. Exper.

Molecules are shown by their SMILES.

The values below come from patent US4510142A, “Derivatives of biphenyl alkyl carboxylates and their use as medicaments” (Pierre Fabre S.A., priority 1981, dated 1985).

Regarding `COc1ccc2cc([C@H](C)C(=O)O)ccc2c1` [Naproxen], the LD50 – broadly, the dose at which mortality reaches 50% – was 400 mg/kg.
